Consider one substance from US20050020488 (published 2005).

This data set in a line: peptide synthesis. To be noted: late stage modification step.

With “N^van-2-(n-Decylamino)ethyl 29-{[(Phosphonomethyl)amino] methyl} Vancomycin”, the “crude HPLC purity” value (HPLC area, hydrochloride (di-/trihydrochloride mixture)) was “ca. 80% (HPLC area)”. The step yield entry (di- and trihydrochloride) is “˜100%”.
